Experimental findings from the supplement of paper PMC11348887 are described below.

The other results are listed elsewhere or left out. Most values lie at the level of the controls, where differences are scatter.

Common to all, as to settings: 5 µM; treatment: days 7-14 after plating, readout day 21
The subject of assay [1] is hPSC-derived cortical neurons (WA09). Put plainly: nucleus area z-score vs screen plate; higher = larger nuclei (more mature).
Assay [2] shares this test system. Put plainly: total neurite length per nucleus (MAP2) z-score; higher = more neurite growth.
For assay [3] the test system is unchanged. As to the kind of experiment: nucleus roundness z-score vs screen plate; higher = rounder nuclei (more mature).
The test system is the same in assay [4]. As to the kind of experiment: KCl-induced FOS+/EGR-1+ double-positive nuclei fraction z-score (KCl minus unstimulated); higher = stronger activity-induced IEG response.

In assay [1], `O=C1[C@H](Cc2ccc(O)cc2)N2C(=O)CCN(C(=O)NCc3ccccc3)[C@H]2CN1Cc1cccc2ccccc12` displayed a nucleus area z-score of 0.619. Moreover, the “total neurite length per nucleus (z-score)” value in assay [2] was -0.147. In assay [3], this molecule returned a nucleus roundness z-score of -0.433. For the same molecule, the “KCl-induced FOS+/EGR-1+ double-positive nuclei fraction z-score” value in assay [4] was -0.204.
The matching figures for `CCOC(=O)c1ccc(N)cc1` [Benzocaine]: 0.199, -0.103, 0.265 and 1.23.
The matching figures for `Cc1ccc(-c2ncc(Cl)cc2-c2ccc(S(C)(=O)=O)cc2)cn1` [Etoricoxib]: -0.195, -0.373, 0.117 and 1.03.
The matching figures for `Nc1ccc2cc3ccc(N)cc3nc2c1` [Proflavine Hemisulfate]: -8.25, -1.94, -10.5 and 5.4.
In assay [1], `Cc1cc(C(N)=O)ccc1-n1c(CCC(=O)O)ccc1-c1ccc(-n2ccnc2)cc1` registered a nucleus area z-score of 0.912. Also, the “total neurite length per nucleus (z-score)” value in assay [2] amounted to 0.418. The nucleus roundness z-score in assay [3] worked out at 0.317. In addition, the “KCl-induced FOS+/EGR-1+ double-positive nuclei fraction z-score” value in assay [4] stood at 1.2.
The matching figures for `Cc1cc(/C=C2/SC(=S)NC2=O)c(C)n1-c1cccnc1` [Optovin]: 0.84, -0.513, -0.348 and -1.18.
The matching figures for `NC(=S)N/N=C/c1ncccc1N` [Triapine]: -0.772, 0.292, -0.171 and -0.431.
The matching figures for `CC1(C)Cc2c(-c3ccccc3)c(-c3ccc(Cl)cc3)c(CC(=O)O)n2C1` [Licofelone]: -0.722, -0.571, 0.291 and -0.0523.
The molecule `CN1CCN(Cc2ccc(-c3cnc4[nH]cc(-c5ccc6[nH]ccc6c5)c4c3)cc2)CC1` had a nucleus area z-score in assay [1] of -14.4. The “total neurite length per nucleus (z-score)” value in assay [2] is -5.7. In assay [3], the nucleus roundness z-score was -4.44. Moreover, the “KCl-induced FOS+/EGR-1+ double-positive nuclei fraction z-score” value in assay [4] was found to be 1.61.
The matching figures for `CC(C)(CO)c1cc2cc(NC(=O)C3(c4ccc5c(c4)OC(F)(F)O5)CC3)c(F)cc2n1C[C@@H](O)CO`: 2.08, -0.176, 0.0219 and 2.31.
In assay [1], `CC(C)[C@H](CO)Nc1nc(Nc2cccc(Cl)c2)c2ncn(C(C)C)c2n1` [Purvalanol A] came in with a nucleus area z-score of -0.255. Also, the “total neurite length per nucleus (z-score)” value in assay [2] stood at 0.669. Moreover, in assay [3], the nucleus roundness z-score is -0.149. For the same molecule, the “KCl-induced FOS+/EGR-1+ double-positive nuclei fraction z-score” value in assay [4] came out at 1.35.
